Measurements reported in PubChem BioAssay AID504791 (Drosophila RNAi Screening Center, 2011)

Test: 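Factors in Argonaute-based small RNA production and activity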 (primary screen)
System: Drosophila S2-derived reporter cells
Knock-down reagent: long dsRNA against Drosophila genes, about 150-250 ng dsRNA per well (siRNA assay); about 80-120 ng (miRNA assay)
Duration: about 5 days (siRNA assay); about 4 days (miRNA assay)
Treatment: copper sulfate induction of reporters: 25 µM (siRNA assay); 200 mM stated (miRNA assay), 1-2 days before reading
Read-out: 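Per-well ratio of Renilla over firefly light, expressed relative to that plate's average ratio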
Call rule: 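a well was a first-pass pick when its plate-scaled ratio rose above 1.5 (siRNA assay) or 1.6 (miRNA assay), or dropped below 0.6; a gene counted only if two separate dsRNAs agreed on retest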
The deposit covers about 23,000 reagents; below is an unselected part of those with a known target gene and a result. Of all reagents, 199 (0.86%) got an active call. 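Plate-scaled ratios behind the calls are not deposited; printed light signals are raw; many rows marked increased or decreased are still called inactive.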 Reagents against one gene are numbered here. Names joined by + are all predicted targets of the reagent. The record does not give: the direction of the score.

no.	target	reagent no.	stable assay Renilla, run 1 (luminescence)	stable assay firefly, run 1 (luminescence)	Outcome
1	CG8476 (GeneID 41624)	1	7290	3.68e5	inactive
2	O-fut2 (GeneID 31098)	1	7420	4.98e5	inactive
3	RYa-R (GeneID 43253)	1	8752	4.72e5	inactive
4	CG18473 (GeneID 41116)	1	6659	5.54e5	inactive
5	CG8543 (GeneID 38837)	1	6486	4.40e5	inactive
6	CG8543 (GeneID 38837)	2	3216	3.13e5	inactive
7	Rab3-GEF (GeneID 32442)	1	4884	3.71e5	inactive
8	Rab3-GEF (GeneID 32442)	2	4287	3.30e5	inactive
9	Rab3-GEF (GeneID 32442)	3	4063	2.62e5	inactive
10	nxf4 (GeneID 40884)	1	6876	4.71e5	inactive
11	Gba1b (GeneID 318721)	1	8637	4.71e5	inactive
12	CG11413 + CG4622	1	7466	4.19e5	inactive
13	Paf-AHalpha (GeneID 32529)	1	6071	4.26e5	inactive
14	asRNA:CR33945 (GeneID 3772292)	1	8778	3.67e5	inactive
15	RpL13A (GeneID 40687)	1	9917	3.74e5	inactive
16	vimar (GeneID 35609)	1	3.64e5	1.47e6	inactive

4 entries from above, limited to “stable assay Renilla, run 1 (luminescence)”.
CG11413 + CG4622	7466
Paf-AHalpha (GeneID 32529)	6071
asRNA:CR33945 (GeneID 3772292)	8778
RpL13A (GeneID 40687)	9917

More records:
no.	target	reagent no.	stable assay Renilla, run 1 (luminescence)	stable assay firefly, run 1 (luminescence)	Outcome
17	CG7914 (GeneID 32907)	1	5339	3.89e5	inactive
18	Pal1 + Pdrg1	1	5891	4.03e5	inactive
19	CG3987 (GeneID 41822)	1	7938	4.08e5	inactive
20	scpr-B (GeneID 41357)	1	9464	6.28e5	inactive
21	CheA7a (GeneID 31672)	1	6039	2.99e5	inactive
22	Dip-C (GeneID 47769)	1	7302	3.80e5	inactive
23	wake (GeneID 42676)	1	7194	2.81e5	inactive
24	wake (GeneID 42676)	2	6224	3.27e5	inactive
25	FucT6 (GeneID 32122)	1	8275	4.79e5	inactive
26	CG15152 (GeneID 35082)	1	7262	3.94e5	inactive
27	Git (GeneID 36122)	1	8143	4.81e5	inactive
28	CG11060 (GeneID 35641)	1	39812	1.61e6	inactive
29	OSCP1 (GeneID 36300)	1	6475	5.09e5	inactive
30	CG4293 (GeneID 31001)	1	7498	5.01e5	inactive
31	Jon25Bii (GeneID 33707)	1	7624	3.80e5	inactive
32	CG12158 (GeneID 2768730)	1	5722	6.30e5	inactive
33	CG10051 (GeneID 37222)	1	6879	4.07e5	inactive
34	CG17994 (GeneID 35550)	1	8259	4.20e5	inactive
